Our source for the binding values is doi:10.1101/871517.

Sequences of proteins named here, by UniProt entry; tags and fusion partners are left off.
UniProt Q9NP72: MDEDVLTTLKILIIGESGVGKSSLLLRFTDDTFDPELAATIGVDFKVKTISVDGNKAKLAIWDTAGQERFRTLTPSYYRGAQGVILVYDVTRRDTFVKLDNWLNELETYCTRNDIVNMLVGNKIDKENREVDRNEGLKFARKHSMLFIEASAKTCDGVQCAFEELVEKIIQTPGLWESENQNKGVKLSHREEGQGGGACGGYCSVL
UniProt P32019: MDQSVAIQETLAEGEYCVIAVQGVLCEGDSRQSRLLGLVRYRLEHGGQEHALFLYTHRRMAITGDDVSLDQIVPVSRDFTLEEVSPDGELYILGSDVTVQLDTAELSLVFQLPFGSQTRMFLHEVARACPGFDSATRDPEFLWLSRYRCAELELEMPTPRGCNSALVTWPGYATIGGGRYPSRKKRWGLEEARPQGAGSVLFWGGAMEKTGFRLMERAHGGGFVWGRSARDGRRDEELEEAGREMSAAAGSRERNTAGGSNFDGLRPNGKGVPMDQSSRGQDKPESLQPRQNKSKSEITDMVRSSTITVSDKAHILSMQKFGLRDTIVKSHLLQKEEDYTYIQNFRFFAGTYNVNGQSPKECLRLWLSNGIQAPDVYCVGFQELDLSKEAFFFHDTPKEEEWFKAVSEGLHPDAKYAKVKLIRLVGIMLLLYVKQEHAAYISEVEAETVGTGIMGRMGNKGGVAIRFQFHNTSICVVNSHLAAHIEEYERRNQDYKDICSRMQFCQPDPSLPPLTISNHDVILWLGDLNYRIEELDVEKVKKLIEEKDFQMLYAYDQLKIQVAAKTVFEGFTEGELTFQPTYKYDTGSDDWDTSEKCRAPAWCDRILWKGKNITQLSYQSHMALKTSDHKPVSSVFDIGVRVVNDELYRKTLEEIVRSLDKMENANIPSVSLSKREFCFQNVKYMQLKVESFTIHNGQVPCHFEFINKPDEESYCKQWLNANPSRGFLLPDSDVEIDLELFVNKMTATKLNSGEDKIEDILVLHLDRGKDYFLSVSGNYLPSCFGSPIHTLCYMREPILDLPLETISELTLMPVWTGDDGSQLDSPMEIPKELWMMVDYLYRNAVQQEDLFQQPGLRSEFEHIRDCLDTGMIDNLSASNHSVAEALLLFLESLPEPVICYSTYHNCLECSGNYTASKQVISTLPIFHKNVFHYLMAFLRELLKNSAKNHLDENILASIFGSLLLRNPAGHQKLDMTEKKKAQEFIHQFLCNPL

Test [1] deals with HA-RAB18 (UniProt Q9NP72). As to the kind of experiment: co-IP.
Test [2] concerns the target HA-RAB18 (UniProt Q9NP72). Briefly: co-IP. This is another data set of the same source.

Read-outs that look alike come from different tables or passages of the source. Results are given in words; binding and its absence hold for the method and conditions named. In cells and extracts the contact can be indirect. Some entries that bind do so weakly or less than the wild type. For part of these data: Where a sequence is shown, tags or fusion partners need not be part of it.

“mCherry-INPP5B (from UniProt P32019 1-993)”: the binding entry with HA-RAB18 [1] is reported as “binds”.

B1: mEmerald-SEC22A (protein, UniProt Q96IW7 1-307)
chain: MSMILSASVIRVRDGLPLSASTDYEQSTGMQECRKYFKMLSRKLAQLPDRCTLKTGHYNINFISSLGVSYMMLCTENYPNVLAFSFLDELQKEFITTYNMMKTNTAVRPYCFIEFDNFIQRTKQRYNNPRSLSTKINLSDMQTEIKLRPPYQISMCELGSANGVTSAFSVDCKGAGKISSAHQRLEPATLSGIVGFILSLLCGALNLIRGFHAIESLLQSDGDDFNYIIAFFLGTAACLYQCYLLVYYTGWRNVKSFLTFGLICLCNMYLYELRNLWQLFFHVTVGAFVTLQIWLRQAQGKAPDYDV
Turning to B1, in the test with HA-RAB18 [2], the binding entry was “binds”.

B2: TMCO4-EGFP (protein, UniProt Q5TGY1 1-634)
chain: MAMWNRPCQRLPQQPLVAEPTAEGEPHLPTGRELTEANRFAYAALCGISLSQLFPEPEHSSFCTEFMAGLVQWLELSEAVLPTMTAFASGLGGEGADVFVQILLKDPILKDDPTVITQDLLSFSLKDGHYDARARVLVCHMTSLLQVPLEELDVLEEMFLESLKEIKEEESEMAEASRKKKENRRKWKRYLLIGLATVGGGTVIGVTGGLAAPLVAAGAATIIGSAGAAALGSAAGIAIMTSLFGAAGAGLTGYKMKKRVGAIEEFTFLPLTEGRQLHITIAVTGWLASGKYRTFSAPWAALAHSREQYCLAWEAKYLMELGNALETILSGLANMVAQEALKYTVLSGIVAALTWPASLLSVANVIDNPWGVCLHRSAEVGKHLAHILLSRQQGRRPVTLIGFSLGARVIYFCLQEMAQEKDCQGIIEDVILLGAPVEGEAKHWEPFRKVVSGRIINGYCRGDWLLSFVYRTSSVQLRVAGLQPVLLQDRRVENVDLTSVVSGHLDYAKQMDAILKAVGIRTKPGWDEKGLLLAPGCLPSEEPRQAAAAASSGETPHQVGQTQGPISGDTSKLAMSTDPSQAQVPVGLDQSEGASLPAAASPERPPICSHGMDPNPLGCPDCACKTQGPSTGLD
In the case of B2, the binding entry in the test with HA-RAB18 [2] is listed as “binds”.
